Assay results: the supplement of paper PMC3334620
Whole data set: some 33,000 sequences, median “E-score (-0.5 to 0.5)” near -0.0059, cut for the highest 2% near 0.26. Some of the results follow.

biological target: T1, Cin5 (UniProt P40917); assay: PBM E-score (8-mer binding enrichment) (E-score (-0.5 to 0.5)); higher = stronger / more preferred TF binding; conditions: protein concentration: 100 nM; construct: GST-full length
T1 sequence: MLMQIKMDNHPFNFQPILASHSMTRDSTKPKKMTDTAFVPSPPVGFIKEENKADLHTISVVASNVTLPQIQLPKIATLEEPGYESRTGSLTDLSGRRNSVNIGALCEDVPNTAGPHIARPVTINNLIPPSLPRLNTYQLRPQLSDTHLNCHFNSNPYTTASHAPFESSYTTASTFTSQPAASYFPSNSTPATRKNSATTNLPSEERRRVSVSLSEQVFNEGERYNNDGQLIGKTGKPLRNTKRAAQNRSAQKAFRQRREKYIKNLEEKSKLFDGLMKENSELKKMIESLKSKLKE
Outline: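 E-scores (a modified Wilcoxon-Mann-Whitney statistic) were assigned by the Universal PBM Analysis Suite to every ungapped eight-base word pooled with its reverse complement. The input came from universal all-10-mer Agilent arrays made double-stranded by primer extension and probed with GST-tagged yeast transcription factors at about 100-200 nM. Fluorescent anti-GST detected bound protein, and masliner normalised the scans.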

Compared with CAAGTCCG, AAATATGT is higher in “PBM E-score” value: -0.109 for the first, 0.223 for the second.

First: AAAATACT
Second: AGGTCTAA
The “PBM E-score” value of the first is higher: 0.16 for the first, -0.0492 for the second.

First: ACATGCCC
Second: CCCGTAGA
The “PBM E-score” value of the first is higher: -0.178 for the first, -0.302 for the second.

Compared with ACCACGGT, ACAATCGC is higher in “PBM E-score” value: -0.303 for the first, 0.115 for the second.

Compared with TATAATAA, AGACCTTA is lower in “PBM E-score” value: 0.241 for the first, -0.0451 for the second.

Compared with AGATTACG, TTTCCAAA is lower in “PBM E-score” value: 0.419 for the first, -0.0319 for the second.

First: CCAATGGG
Second: GTTGATGA
The “PBM E-score” value of the first is lower: -0.286 for the first, 0.154 for the second.

Going from CATTCTCA to TATATAAA, the “PBM E-score” value rises from 0.21 to 0.283.

Compared with ACCTCACC, ACTCATGA is higher in “PBM E-score” value: 0.00165 for the first, 0.171 for the second.

Compared with GATTTTGA, CACGGCCG is lower in “PBM E-score” value: 0.115 for the first, 0.0294 for the second.

Compared with AATTTATG, AGGACGAC is lower in “PBM E-score” value: 0.192 for the first, -0.127 for the second.

Compared with CATACGCA, GAGAGTTA is higher in “PBM E-score” value: -0.0419 for the first, -0.0296 for the second.

First: CGAAAATA
Second: ACTCGCGC
The “PBM E-score” value of the first is lower: 0.0809 for the first, 0.112 for the second.

Compared with ATCTCTTC, AGATCAGC is higher in “PBM E-score” value: 0.117 for the first, 0.137 for the second.

Going from CCATTACC to AGGCAAGA, the “PBM E-score” value falls from 0.00911 to -0.112.

First: AAACTTAT
Second: CTTTATTA
The “PBM E-score” value of the first is higher: 0.233 for the first, 0.0651 for the second.

Going from CATCCGCA to CGACGACG, the “PBM E-score” value falls from 0.128 to -0.0571.

First: TGGGTCAA
Second: CACGTTCC
The “PBM E-score” value of the first is higher: 0.0321 for the first, -0.177 for the second.

Compared with CATCTAGC, ACCGGTTC is lower in “PBM E-score” value: 0.0347 for the first, -0.122 for the second.

Going from ATGAAGCG to CGCGACGA, the “PBM E-score” value rises from -0.2 to 0.106.

Compared with CAAGCTAG, CAAACACA is higher in “PBM E-score” value: -0.143 for the first, 0.0789 for the second.

First: AGAGTAGA
Second: AGGTCGCC
The “PBM E-score” value of the first is higher: 0.00965 for the first, -0.0498 for the second.

First: AGCCATAC
Second: TGCACAAA
The “PBM E-score” value of the first is lower: -0.178 for the first, -0.0813 for the second.

Going from CCCGGATC to CAGGGTCG, the “PBM E-score” value falls from 0.138 to -0.236.

Compared with CTCTTTTA, AGGTTCCG is higher in “PBM E-score” value: -0.209 for the first, 0.149 for the second.

Compared with AAAGATCC, CTTTTTAC is higher in “PBM E-score” value: 0.0292 for the first, 0.0385 for the second.

First: ATGGTAAA
Second: CGGAATAA
The “PBM E-score” value of the first is higher: 0.155 for the first, 0.0669 for the second.

Going from AAGATCGT to CACTGCAC, the “PBM E-score” value falls from 0.0211 to -0.0442.

Compared with AGTTCTTG, GTGTGTGA is higher in “PBM E-score” value: 0.0161 for the first, 0.0728 for the second.

Compared with ATGGCAAC, GAATGGTA is lower in “PBM E-score” value: 0.137 for the first, 0.0546 for the second.

First: AAATCGTA
Second: GTTCTTCA
The “PBM E-score” value of the first is higher: 0.221 for the first, -0.0175 for the second.

Going from CACACAGG to ACAGACTC, the “PBM E-score” value falls from 0.0402 to -0.178.

First: GATGTTGC
Second: GCTGCCAA
The “PBM E-score” value of the first is higher: 0.12 for the first, -0.037 for the second.

Going from ATATGGCA to CACCCACG, the “PBM E-score” value rises from 0.0205 to 0.0558.

Going from CGCTGTCA to ACCAGTTA, the “PBM E-score” value rises from -0.139 to 0.142.

Compared with AATCCTCG, AGTGTCTC is lower in “PBM E-score” value: 0.00451 for the first, -0.175 for the second.

First: CCGTTTAA
Second: GCTGCGGA
The “PBM E-score” value of the first is higher: 0.0312 for the first, -0.105 for the second.

First: GGACCCTA
Second: GTGTATCA
The “PBM E-score” value of the first is lower: -0.267 for the first, 0.202 for the second.

First: ACAACAAG
Second: CAGCACAC
The “PBM E-score” value of the first is higher: 0.116 for the first, -0.286 for the second.

First: ACGTGCAT
Second: CTAGCACA
The “PBM E-score” value of the first is higher: -0.0505 for the first, -0.122 for the second.

Compared with ACTTCCCC, TTCGACAA is higher in “PBM E-score” value: -0.151 for the first, 0.00362 for the second.

First: CCCCAACG
Second: CGAGTAAC
The “PBM E-score” value of the first is lower: 0.0439 for the first, 0.0866 for the second.

Compared with ACTCGTCA, CTTAGGGA is lower in “PBM E-score” value: 0.0152 for the first, -0.365 for the second.
